# Measured values as given in publication PMC7819943, “Rice protein-binding microarrays: a tool to detect cis-acting elements near promoter regions in rice”.
# The list shows a part of the results.
# Molecular target: T1, OsSMF1 (Oryza sativa, UniProt Q6ZLB0 1-436)
# T1 sequence: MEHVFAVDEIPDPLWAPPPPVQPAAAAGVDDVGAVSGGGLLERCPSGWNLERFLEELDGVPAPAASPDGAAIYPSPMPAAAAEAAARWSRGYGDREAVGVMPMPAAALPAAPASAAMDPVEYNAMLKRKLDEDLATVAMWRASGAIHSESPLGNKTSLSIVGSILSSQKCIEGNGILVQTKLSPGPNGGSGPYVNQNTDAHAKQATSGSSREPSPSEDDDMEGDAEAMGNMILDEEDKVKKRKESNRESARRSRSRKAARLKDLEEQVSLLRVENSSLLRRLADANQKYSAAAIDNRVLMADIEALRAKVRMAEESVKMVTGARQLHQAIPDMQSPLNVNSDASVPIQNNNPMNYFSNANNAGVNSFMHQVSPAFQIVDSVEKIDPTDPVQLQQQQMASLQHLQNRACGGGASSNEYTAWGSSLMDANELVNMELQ
# Test: protein-binding microarray (RPBM); PBS, 2% BSA, 51.3 ng/ul salmon testes DNA, 50 uM zinc acetate, 200 nM TF, 25 C, 1 h; high values mean tight binding
# Conditions: protein: recombinant; tags: N-terminal polyhistidine and DsRed monomer fusion (pET32a); chain copies: 2; label: CyDye5-dUTP incorporated in the synthesized complementary strand; 3' TTTTT single-stranded linker to array surface; dsDNA, one strand shown
# Procedure, shortened: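 In PBS with 2% BSA, salmon testes DNA and 50 µM zinc acetate, 200 nM protein was incubated on a custom Agilent array at 25 °C for 1 h and then washed off. The array had been made double-stranded by primer extension with Cy5-dUTP and blocked with 2% BSA. The proteins were transcription factors fused N-terminally to polyhistidine and DsRed, expressed in E. coli BL21-CodonPlus and purified on Ni–NTA. The binding signal is per-feature fluorescence intensity (arbitrary units) from an Axon 4000B scanner.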
row,Sequence,binding signal
1,TTTTCAATAATTCATTTATTCACACTTGTTAATTGGCAGACGGAGTCACCTAGTGCAG,12800 fluorescence intensity (a.u.)
2,CCTCCTCAGCTAGTAGTAGCCGCCTCATCACGCGCCGCTCCGGAGTCACCTAGTGCAG,3970 fluorescence intensity (a.u.)
3,TGGTTAGTTGGCTCCAGATAGTTAGGTTTTAGGGAGAGGTCGGAGTCACCTAGTGCAG,3960 fluorescence intensity (a.u.)
4,ACTAGTTTACAACCACACCAACATGTAGGCATGAACATGGCGGAGTCACCTAGTGCAG,22900 fluorescence intensity (a.u.)
5,TGCTTGCTCGCATGCATGGCGTCATCTTCTATTGGCTGCACGGAGTCACCTAGTGCAG,10200 fluorescence intensity (a.u.)
6,GTTTGATGAGTATTAGGCGTGACACATGACAAATCACAGACGGAGTCACCTAGTGCAG,4260 fluorescence intensity (a.u.)
7,CTCAGCGTCCCTCTCCCTGCACATTTACTCGTATGCACAGCGGAGTCACCTAGTGCAG,3210 fluorescence intensity (a.u.)
8,CATATCTTTGTCAGTGACAAGTGGATCCATGATTCATCGGCGGAGTCACCTAGTGCAG,3650 fluorescence intensity (a.u.)
9,CTTCTGTTGCACAGGTCACAAGCGTCCCCTTGATGTTACCCGGAGTCACCTAGTGCAG,3160 fluorescence intensity (a.u.)
10,GACGGCTGACCTAAACGTGCAGTGTCTGACACTACTTAAGCGGAGTCACCTAGTGCAG,3560 fluorescence intensity (a.u.)
11,TGGAAAATTTTAAGTTATGCTAAATATATGTGTCATGCATCGGAGTCACCTAGTGCAG,4360 fluorescence intensity (a.u.)
12,CTGTTGCATACTTGGCTGACGTTGATGTTGTTGGAGTGCTCGGAGTCACCTAGTGCAG,3210 fluorescence intensity (a.u.)
13,GGCTAGAGAGGGATCAAGGGTAGGAGGGAGAGGAACGGATCGGAGTCACCTAGTGCAG,3210 fluorescence intensity (a.u.)
14,GTATAAAACGCGTGCACACTCACCCACACAGATACCATATCGGAGTCACCTAGTGCAG,4360 fluorescence intensity (a.u.)
15,TGCTGGCTGAATACTACTACCATGTCATCTATAGCCATCACGGAGTCACCTAGTGCAG,3350 fluorescence intensity (a.u.)
16,TGCTGAGATCTTCATTTCTGAATACCTTGTGGAATCCGGACGGAGTCACCTAGTGCAG,25000 fluorescence intensity (a.u.)
17,GCATCAGCGGCACAGGAACCTCAGAAGATCCGACAAAACGCGGAGTCACCTAGTGCAG,4490 fluorescence intensity (a.u.)
18,TCAAAAGAATCAACACACGTGGCCTTACATTCCTCTCAAACGGAGTCACCTAGTGCAG,7760 fluorescence intensity (a.u.)
19,TTGTAATCCGAAACAGATGGTTGTAATCTGAAACGGATTGCGGAGTCACCTAGTGCAG,19600 fluorescence intensity (a.u.)
20,AAGATAAATGGTTAAACCTTATATGTGAAACCAGAGAAAACGGAGTCACCTAGTGCAG,21100 fluorescence intensity (a.u.)
21,ATCAAAGAAACCTCCATGTCAACTAGCCTAGCTAGCTGTTCGGAGTCACCTAGTGCAG,3230 fluorescence intensity (a.u.)

row,Sequence,binding signal
1,CCCACGCGTCCGCTGCCACTTGACGCCGCGCCACGCGCTCCGGAGTCACCTAGTGCAG,3560 fluorescence intensity (a.u.)
2,ATGCTAACCAACTAAAATACTTTTCCATGTACCTTACAAGCGGAGTCACCTAGTGCAG,60000 fluorescence intensity (a.u.)
3,TCAAATGTGTGTACATATATGTCTTCAAATGTGTGTACATCGGAGTCACCTAGTGCAG,4950 fluorescence intensity (a.u.)
4,TTTTCATACGTGAACACTAGCCTGCCCCTTGAAACGAATGCGGAGTCACCTAGTGCAG,9750 fluorescence intensity (a.u.)
5,TACGTTGAAACGTACCGATACTTTGCTAACATATACTCCACGGAGTCACCTAGTGCAG,10500 fluorescence intensity (a.u.)
6,AATGTAAGTCATTCTAGCATTTCTCATTAACATCAATATGCGGAGTCACCTAGTGCAG,3240 fluorescence intensity (a.u.)
7,GAAACCTCGAGCGCTGCCACTGCCATCTCCGTGCCCATACCGGAGTCACCTAGTGCAG,3230 fluorescence intensity (a.u.)
8,TCTTTCATTACTCATGGAACGGTCCAGATCATCTCTGTGTCGGAGTCACCTAGTGCAG,5130 fluorescence intensity (a.u.)
9,TTCGACATCCCCACCTCCCAAGTCACCTTAGGTCAAGGTGCGGAGTCACCTAGTGCAG,3280 fluorescence intensity (a.u.)
10,AGGTCTAACACCCGGCACAGGTATAAGACCAGTAGTGCCACGGAGTCACCTAGTGCAG,4280 fluorescence intensity (a.u.)
11,TGAGTCGCTGCAAATAGAAGGTGTCATGGTATATGGGTGTCGGAGTCACCTAGTGCAG,3500 fluorescence intensity (a.u.)
12,TAGGTGGCAAGATCTATGTCATGATATTAAGTTTTGAGGGCGGAGTCACCTAGTGCAG,3690 fluorescence intensity (a.u.)
13,ATTATGAGCCATGATTCTCTCATCATGCAATGTCCCAGCACGGAGTCACCTAGTGCAG,22100 fluorescence intensity (a.u.)
14,CATGGGAGCACCGGATCGCGTCTCACGTCAACGTGTCGCGCGGAGTCACCTAGTGCAG,3580 fluorescence intensity (a.u.)
15,ATAATTTTCCTCTGGAGCAGCTATATATATGAGACTCTACCGGAGTCACCTAGTGCAG,24900 fluorescence intensity (a.u.)
16,TATGAACACATATGTAGCATACGCTTAAATAGACGAAGACCGGAGTCACCTAGTGCAG,40500 fluorescence intensity (a.u.)
17,TCGAAGAAGCCCTTTATTTCTCTTTTCGATACTCACACAACGGAGTCACCTAGTGCAG,3260 fluorescence intensity (a.u.)
18,CAGGACCTGACGCAGTCCTCCTCCTTCTTGCCGAGGGTTCCGGAGTCACCTAGTGCAG,4520 fluorescence intensity (a.u.)
19,CAGCCATATGGAGCACGATGTGCAAATGTAGGACCTGTGCCGGAGTCACCTAGTGCAG,4090 fluorescence intensity (a.u.)
20,CCCATCGCCAGAATGTTTGGATGATGTTATCTAGCAACTGCGGAGTCACCTAGTGCAG,3520 fluorescence intensity (a.u.)
21,AGCCGGCACGCATGCGTATGTGCACGTAAGTGCTTCGTTCCGGAGTCACCTAGTGCAG,3180 fluorescence intensity (a.u.)

# In a second layout: results already given.
row	Sequence	binding signal
20	CCCATCGCCAGAATGTTTGGATGATGTTATCTAGCAACTGCGGAGTCACCTAGTGCAG	3520 fluorescence intensity (a.u.)
21	AGCCGGCACGCATGCGTATGTGCACGTAAGTGCTTCGTTCCGGAGTCACCTAGTGCAG	3180 fluorescence intensity (a.u.)
